Test results published in publication PMC7949109, “Trans-2-enoyl-CoA reductase limits Ca^2+ accumulation in the endoplasmic reticulum by inhibiting the Ca^2+ pump SERCA2b” (The Journal of Biological Chemistry, 2021).

The chains behind the UniProt entries cited, without tags or fusion partners.
UniProt P78527: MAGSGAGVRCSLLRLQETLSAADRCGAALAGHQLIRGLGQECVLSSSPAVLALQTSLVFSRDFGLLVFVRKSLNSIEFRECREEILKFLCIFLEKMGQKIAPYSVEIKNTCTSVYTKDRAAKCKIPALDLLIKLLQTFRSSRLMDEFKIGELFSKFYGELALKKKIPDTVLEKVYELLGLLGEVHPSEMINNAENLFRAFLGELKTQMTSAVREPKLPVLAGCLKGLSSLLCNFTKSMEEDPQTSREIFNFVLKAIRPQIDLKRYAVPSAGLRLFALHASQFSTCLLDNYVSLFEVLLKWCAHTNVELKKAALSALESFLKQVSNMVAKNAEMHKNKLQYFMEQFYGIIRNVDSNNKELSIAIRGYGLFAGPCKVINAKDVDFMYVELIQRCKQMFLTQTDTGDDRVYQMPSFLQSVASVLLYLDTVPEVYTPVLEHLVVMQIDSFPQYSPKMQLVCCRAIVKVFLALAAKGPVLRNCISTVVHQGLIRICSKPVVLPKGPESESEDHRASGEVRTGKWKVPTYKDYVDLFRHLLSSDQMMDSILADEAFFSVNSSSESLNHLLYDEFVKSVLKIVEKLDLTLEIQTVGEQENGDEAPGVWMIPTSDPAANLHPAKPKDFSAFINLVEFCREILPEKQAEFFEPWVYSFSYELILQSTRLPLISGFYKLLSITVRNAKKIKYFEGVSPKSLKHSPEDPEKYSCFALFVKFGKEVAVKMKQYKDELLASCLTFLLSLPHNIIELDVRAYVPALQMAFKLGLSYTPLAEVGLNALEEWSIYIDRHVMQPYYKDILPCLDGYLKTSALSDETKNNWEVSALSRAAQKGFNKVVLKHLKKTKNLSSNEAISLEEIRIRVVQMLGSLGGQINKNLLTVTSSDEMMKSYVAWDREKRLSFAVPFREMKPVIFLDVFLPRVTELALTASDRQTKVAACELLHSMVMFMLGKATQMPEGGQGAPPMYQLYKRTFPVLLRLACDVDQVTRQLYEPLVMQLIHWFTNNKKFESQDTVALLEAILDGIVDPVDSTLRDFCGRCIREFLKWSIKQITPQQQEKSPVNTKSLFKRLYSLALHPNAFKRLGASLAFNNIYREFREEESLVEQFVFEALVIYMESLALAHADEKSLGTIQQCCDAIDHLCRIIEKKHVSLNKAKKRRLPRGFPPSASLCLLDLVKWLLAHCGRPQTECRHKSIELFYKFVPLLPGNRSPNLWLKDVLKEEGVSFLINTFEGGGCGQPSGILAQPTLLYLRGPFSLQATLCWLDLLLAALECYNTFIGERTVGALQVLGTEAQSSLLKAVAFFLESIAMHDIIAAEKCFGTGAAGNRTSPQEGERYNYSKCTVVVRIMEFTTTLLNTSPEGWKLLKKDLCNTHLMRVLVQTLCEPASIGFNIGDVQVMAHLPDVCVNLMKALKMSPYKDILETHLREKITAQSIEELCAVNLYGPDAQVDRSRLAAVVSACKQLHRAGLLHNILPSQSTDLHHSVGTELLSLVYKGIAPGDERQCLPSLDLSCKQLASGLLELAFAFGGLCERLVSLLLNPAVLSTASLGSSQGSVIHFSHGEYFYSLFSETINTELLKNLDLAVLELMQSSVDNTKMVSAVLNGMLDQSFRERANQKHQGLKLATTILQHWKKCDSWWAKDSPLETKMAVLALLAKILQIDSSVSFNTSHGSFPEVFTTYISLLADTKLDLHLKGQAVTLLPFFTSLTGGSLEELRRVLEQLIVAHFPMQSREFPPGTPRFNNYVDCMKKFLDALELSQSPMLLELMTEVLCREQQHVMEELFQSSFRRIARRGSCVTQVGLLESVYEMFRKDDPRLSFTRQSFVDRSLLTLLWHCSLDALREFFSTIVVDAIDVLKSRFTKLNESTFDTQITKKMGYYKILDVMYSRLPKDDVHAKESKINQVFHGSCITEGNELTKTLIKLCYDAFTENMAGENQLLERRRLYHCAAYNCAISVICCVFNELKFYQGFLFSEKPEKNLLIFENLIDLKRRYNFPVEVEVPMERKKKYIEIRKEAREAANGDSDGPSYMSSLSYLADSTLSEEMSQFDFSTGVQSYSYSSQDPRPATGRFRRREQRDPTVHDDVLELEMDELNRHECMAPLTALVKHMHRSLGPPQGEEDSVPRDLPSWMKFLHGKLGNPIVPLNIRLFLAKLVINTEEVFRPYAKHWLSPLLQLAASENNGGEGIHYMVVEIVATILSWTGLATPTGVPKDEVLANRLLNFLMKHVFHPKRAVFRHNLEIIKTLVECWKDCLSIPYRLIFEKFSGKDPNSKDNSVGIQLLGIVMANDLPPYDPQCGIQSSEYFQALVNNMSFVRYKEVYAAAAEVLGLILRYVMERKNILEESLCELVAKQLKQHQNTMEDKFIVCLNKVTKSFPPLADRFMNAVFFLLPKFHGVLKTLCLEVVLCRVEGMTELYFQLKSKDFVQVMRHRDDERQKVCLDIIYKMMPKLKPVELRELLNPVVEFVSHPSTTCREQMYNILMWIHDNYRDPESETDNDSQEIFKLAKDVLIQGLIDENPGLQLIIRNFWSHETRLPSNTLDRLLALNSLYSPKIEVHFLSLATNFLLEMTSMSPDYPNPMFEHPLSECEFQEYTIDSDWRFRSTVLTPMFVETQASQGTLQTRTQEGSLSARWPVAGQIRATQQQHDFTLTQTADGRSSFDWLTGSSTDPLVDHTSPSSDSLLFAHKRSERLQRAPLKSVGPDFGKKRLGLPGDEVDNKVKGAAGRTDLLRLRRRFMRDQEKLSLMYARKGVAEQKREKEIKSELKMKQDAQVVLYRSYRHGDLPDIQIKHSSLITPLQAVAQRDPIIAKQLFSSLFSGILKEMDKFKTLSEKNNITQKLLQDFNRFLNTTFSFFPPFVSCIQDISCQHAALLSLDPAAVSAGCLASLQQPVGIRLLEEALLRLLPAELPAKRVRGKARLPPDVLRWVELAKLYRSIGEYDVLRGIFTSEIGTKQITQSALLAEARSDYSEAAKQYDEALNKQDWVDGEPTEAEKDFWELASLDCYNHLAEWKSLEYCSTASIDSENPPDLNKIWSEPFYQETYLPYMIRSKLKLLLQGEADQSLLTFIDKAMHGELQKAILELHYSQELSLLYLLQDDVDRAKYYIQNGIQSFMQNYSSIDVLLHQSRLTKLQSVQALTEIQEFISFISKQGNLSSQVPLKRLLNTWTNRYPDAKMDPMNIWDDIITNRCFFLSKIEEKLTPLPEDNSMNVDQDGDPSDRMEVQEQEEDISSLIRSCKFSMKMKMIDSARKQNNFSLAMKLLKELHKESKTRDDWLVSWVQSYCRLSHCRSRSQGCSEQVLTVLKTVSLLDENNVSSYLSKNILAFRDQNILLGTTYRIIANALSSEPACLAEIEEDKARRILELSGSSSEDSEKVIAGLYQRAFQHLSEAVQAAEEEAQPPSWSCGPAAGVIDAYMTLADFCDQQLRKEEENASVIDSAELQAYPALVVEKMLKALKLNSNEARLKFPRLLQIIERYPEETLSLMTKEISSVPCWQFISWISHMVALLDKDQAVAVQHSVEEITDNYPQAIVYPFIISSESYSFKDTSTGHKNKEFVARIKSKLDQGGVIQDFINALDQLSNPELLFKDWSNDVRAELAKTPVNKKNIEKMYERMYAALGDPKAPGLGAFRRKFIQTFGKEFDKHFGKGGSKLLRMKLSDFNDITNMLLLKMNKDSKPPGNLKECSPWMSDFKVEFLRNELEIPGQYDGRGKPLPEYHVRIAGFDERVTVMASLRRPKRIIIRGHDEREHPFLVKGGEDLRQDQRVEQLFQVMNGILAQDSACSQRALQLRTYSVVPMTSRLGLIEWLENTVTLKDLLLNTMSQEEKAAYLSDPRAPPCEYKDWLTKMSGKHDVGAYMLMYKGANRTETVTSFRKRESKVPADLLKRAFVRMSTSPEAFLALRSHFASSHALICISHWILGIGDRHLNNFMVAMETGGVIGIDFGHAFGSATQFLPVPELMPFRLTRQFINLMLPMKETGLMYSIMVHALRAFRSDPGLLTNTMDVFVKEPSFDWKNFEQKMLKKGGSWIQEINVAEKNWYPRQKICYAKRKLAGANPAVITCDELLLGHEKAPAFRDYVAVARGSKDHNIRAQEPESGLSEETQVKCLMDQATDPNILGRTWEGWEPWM
UniProt Q7Z3U7: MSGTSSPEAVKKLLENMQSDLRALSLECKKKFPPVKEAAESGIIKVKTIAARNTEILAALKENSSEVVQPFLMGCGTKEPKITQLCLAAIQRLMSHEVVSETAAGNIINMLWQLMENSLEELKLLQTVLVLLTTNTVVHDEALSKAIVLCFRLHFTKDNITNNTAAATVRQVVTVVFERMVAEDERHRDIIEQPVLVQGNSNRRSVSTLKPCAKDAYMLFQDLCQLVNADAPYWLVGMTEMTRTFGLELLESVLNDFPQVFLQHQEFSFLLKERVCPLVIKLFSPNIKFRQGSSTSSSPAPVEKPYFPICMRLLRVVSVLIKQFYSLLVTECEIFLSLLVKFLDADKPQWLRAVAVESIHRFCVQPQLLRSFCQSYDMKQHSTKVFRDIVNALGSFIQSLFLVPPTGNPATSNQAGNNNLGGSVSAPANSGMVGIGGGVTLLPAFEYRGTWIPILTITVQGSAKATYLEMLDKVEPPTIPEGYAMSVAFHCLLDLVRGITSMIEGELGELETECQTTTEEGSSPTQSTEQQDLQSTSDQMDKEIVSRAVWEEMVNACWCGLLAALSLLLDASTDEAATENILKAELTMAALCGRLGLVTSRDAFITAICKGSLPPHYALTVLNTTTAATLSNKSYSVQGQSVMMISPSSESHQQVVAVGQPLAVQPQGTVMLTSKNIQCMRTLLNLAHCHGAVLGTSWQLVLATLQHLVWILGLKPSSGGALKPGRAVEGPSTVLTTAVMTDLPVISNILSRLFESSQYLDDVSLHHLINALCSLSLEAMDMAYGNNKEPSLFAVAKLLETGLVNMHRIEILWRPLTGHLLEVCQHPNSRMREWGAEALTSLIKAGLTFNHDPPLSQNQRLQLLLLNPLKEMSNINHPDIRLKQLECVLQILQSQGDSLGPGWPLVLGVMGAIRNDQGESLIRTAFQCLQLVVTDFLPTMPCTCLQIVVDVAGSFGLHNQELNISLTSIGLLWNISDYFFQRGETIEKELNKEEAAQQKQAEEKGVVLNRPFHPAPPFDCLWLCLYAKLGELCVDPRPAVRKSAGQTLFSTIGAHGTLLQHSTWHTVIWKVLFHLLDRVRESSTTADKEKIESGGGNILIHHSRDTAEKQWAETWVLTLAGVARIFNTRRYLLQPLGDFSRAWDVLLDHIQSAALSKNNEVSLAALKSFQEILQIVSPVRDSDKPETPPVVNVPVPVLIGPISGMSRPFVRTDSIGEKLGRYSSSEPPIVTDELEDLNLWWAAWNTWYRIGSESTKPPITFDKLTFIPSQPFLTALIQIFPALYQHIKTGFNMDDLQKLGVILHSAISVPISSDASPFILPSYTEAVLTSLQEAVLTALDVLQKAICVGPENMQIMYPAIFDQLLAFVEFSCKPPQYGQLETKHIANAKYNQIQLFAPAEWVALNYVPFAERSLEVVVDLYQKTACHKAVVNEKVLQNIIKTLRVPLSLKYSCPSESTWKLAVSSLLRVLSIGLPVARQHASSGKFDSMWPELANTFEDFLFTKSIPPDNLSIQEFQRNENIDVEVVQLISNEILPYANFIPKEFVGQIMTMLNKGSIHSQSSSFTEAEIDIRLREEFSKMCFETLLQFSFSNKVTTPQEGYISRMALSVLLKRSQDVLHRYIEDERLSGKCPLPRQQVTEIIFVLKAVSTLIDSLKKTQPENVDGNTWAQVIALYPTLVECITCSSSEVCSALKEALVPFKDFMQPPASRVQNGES

target: T1, Strep-TER (trans-2-enoyl-CoA reductase with an N-terminal Strep-tag) (human) (UniProt Q9NZ01); experiment: affinity purification with mass spectrometry; Triton X-100 extracts of Strep-TER-expressing or parental HEK293 cells applied to Strep-Tactin Sepharose, buffer A (20 mM Tris HCl pH 8.0, 150 mM NaCl, 1 mM DTT, 2 mM MgCl2, 1 mM CaCl2) with 1% Triton X-100; eluted with desthiobiotin; silver-stained bands cut out, LC-MS/MS
T1 sequence: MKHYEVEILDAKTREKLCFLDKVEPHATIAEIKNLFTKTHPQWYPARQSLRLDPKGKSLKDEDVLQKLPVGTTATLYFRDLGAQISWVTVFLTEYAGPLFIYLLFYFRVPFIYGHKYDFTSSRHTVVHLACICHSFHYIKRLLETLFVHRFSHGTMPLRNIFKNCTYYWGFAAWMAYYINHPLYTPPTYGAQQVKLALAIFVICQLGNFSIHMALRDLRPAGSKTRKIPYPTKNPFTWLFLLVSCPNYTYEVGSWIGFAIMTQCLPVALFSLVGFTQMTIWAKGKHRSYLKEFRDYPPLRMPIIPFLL

For “DNA-dependent protein kinase catalytic subunit (from UniProt P78527 1-4128) (enzyme)”, which binding is on record?
The binding was “binds”.

For “nuclear pore complex protein Nup205 (from UniProt Q92621 1-2012)”, which binding is on record?
The binding was “binds”.

For “protein MON2 homologue (from UniProt Q7Z3U7 1-1717)”, which binding is on record?
The binding was “binds”.

For “sarco(endo)plasmic reticulum Ca2+-ATPase 2b (SERCA2b), endogenous (from UniProt P16615-1 1-1042) (enzyme)”, which binding is on record?
Its binding is “binds”.

Which binding does the source give for “β-tubulin (human (endogenous in HEK293))” here?
The binding was “binds”.

No constants are given. Whether binding was seen depends on the method and setting. Binding seen in cells or lysates may run through a third protein. Here binding means that the protein was enriched with, or labelled near, the bait; the list need not be complete. Where a sequence is shown, tags or fusion partners need not be part of it.
